# Results are given in words; binding and its absence hold for the method and conditions named. Some results given as binding are weak or reduced against the parent protein; the word gives no strength.
# Chains of the proteins cited; added tags and fusions are not shown.
# UniProt Q05471: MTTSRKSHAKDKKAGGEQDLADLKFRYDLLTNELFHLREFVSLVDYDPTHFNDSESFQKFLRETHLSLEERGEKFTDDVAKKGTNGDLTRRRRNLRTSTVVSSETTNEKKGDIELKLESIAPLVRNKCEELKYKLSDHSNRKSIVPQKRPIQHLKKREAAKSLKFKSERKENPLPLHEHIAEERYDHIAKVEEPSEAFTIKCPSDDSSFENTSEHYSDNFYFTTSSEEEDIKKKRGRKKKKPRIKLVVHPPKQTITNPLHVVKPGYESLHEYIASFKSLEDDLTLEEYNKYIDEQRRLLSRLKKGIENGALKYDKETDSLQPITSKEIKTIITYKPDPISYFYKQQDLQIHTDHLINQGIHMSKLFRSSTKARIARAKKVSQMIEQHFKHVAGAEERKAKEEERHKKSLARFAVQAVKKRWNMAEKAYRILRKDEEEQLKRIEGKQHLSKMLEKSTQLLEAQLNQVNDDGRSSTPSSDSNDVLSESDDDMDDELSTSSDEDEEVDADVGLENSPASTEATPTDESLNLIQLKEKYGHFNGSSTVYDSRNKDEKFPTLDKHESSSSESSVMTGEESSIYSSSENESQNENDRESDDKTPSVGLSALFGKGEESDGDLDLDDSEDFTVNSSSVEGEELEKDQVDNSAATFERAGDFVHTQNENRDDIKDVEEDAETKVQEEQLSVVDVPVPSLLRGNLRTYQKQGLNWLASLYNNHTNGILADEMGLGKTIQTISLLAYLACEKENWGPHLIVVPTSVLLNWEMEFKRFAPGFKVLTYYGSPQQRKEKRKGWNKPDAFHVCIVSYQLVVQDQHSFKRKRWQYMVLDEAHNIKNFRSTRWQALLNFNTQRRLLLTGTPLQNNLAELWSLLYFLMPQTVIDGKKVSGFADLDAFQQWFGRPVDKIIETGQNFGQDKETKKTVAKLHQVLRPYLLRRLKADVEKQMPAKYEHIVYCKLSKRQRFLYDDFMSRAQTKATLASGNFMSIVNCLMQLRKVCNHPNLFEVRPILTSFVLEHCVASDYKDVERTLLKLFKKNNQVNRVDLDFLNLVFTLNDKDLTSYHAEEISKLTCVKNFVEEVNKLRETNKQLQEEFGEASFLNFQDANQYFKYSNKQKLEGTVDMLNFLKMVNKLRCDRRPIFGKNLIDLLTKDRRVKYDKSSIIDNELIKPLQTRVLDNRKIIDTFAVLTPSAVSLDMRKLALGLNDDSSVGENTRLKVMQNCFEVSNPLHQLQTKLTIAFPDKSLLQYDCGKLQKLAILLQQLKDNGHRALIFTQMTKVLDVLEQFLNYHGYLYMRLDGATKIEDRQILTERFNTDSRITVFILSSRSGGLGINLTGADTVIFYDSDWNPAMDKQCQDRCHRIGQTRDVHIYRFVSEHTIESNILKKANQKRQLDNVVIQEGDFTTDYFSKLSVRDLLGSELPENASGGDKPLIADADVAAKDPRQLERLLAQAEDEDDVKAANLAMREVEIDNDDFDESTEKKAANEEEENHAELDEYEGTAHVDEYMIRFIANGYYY
# UniProt Q03940: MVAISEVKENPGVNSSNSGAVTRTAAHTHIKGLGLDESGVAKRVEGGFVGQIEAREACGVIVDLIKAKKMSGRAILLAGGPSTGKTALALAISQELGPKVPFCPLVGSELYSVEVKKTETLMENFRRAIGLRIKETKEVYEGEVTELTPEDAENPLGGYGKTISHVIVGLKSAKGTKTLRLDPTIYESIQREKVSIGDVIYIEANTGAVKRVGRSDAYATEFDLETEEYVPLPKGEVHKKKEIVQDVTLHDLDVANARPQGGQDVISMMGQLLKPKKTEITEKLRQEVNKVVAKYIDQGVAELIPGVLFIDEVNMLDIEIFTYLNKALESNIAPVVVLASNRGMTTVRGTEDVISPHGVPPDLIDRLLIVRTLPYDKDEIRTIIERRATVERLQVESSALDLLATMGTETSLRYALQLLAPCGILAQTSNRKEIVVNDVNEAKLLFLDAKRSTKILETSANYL
# Biological target: Swr1-3xFLAG (yeast) (UniProt Q05471)
# Assay: sequential affinity purification
substance,measurement,value
Rvb1-MBP (from UniProt Q03940 1-463),binding,binds
